According to patent US20260035475A1:
These are yes or no findings as the source states them, for the method shown. Some binding calls cover weakened binding; strength is not graded here.

B1: 24B4 (mouse monoclonal antibody) (antibody, V domains shown)
VH: EVQLQQFGAELVKPGTSVKISCKASGYTFTDYNMDWVKQGHGKGLEWIGDINPNYDTTSYSQKFKGKATLTVDKSSSTAYMELRSLTSEDTAVYYCARSEAGNYYWYFDVWGAGTTVTVSS
VL: DIVMSQSPSSLAVSVGEKVTMSCKSSQSLLYSSNRKNYLAWYRQKPGQSPKLLIYWASTRESGVPDRFTGSGSGTDFTLTISSVKAEDLAVYSCQQYYNYPYTFGGGTKLEIK
B2: 37D10 (mouse monoclonal antibody) (antibody, V domains shown)
VH: QVQLQQSGAELVRPGTSVKISCKASGYAFTNYWLGWVKQRPGHGLEWIGDIFPGSDNTYYNEKFKGKATLTADKSSSTAYMQLSSLASEDSAVYFCARSGNFYAMDYWGQGTSVTVSS
VL: ENVLTQSPAIMSASPGEKVTMTCSASSSVNYMNWYQQKSSTFPKLWIYDTSKLASGVPGRFSGSGSGKFYSLTISSMEAEDVATYYCFQGSGYPFTFGSGTKLEIK

Tests used:
[1] = target: human transferrin receptor 1 (hTfR1), recombinant, construct not stated (human) (UniProt P02786); test: BLI, IgG captured from hybridoma supernatant, TfR1 in solution
[2] = target: cynomolgus TfR1 (cTfR1), recombinant, construct not stated (cynomolgus); test: as above
[3] = target: human transferrin receptor 1 (hTfR1), recombinant, construct not stated (human) (UniProt P02786); test: BLI epitope binning on biotinylated hTfR1, competitor 15G11-1
[4] = target: cynomolgus TfR1 (cTfR1), recombinant, construct not stated (cynomolgus); test: BLI (Octet): IgG captured from crude hybridoma supernatant on anti-mouse capture sensors, 250 nM cTfR1 in solution
[5] = target: human transferrin receptor 1 (hTfR1), recombinant, construct not stated (human) (UniProt P02786); test: BLI, IgG captured from hybridoma supernatant, 250 nM hTfR1 in solution
[6] = target: chimeric TfR1 consisting of human helical domain grafted on mouse TfR1 ectodomain (SEQ ID NO:77) (human/mouse chimera); test: condition: about 650 ng/ml (last point, between 100 and 1000 on the log axis); indirect ELISA on coated h/m helical domain chimera; x axis printed 'TfR (ng/ml)' [E]
[7] = target: human transferrin receptor 1 (hTfR1), recombinant, construct not stated (human) (UniProt P02786); test: BLI (Octet): IgG captured from crude hybridoma supernatant on anti-mouse capture sensors, 250 nM hTfR1 in solution
[8] = target: cynomolgus TfR1 (cTfR1), recombinant, construct not stated (cynomolgus); test: BLI, IgG captured from hybridoma supernatant, 250 nM cTfR1 in solution
[9] = target: cynomolgus TfR1 (cTfR1), recombinant, construct not stated (cynomolgus); test: ELISA, hybridoma supernatant
[10] = target: chimeric TfR1 consisting of human apical domain grafted on mouse TfR1 ectodomain (SEQ ID NO:76) (human/mouse chimera); test: condition: about 650 ng/ml (last point, between 100 and 1000 on the log axis); indirect ELISA on coated h/m apical domain chimera; x axis printed 'TfR (ng/ml)' [C]
[11] = target: chimeric TfR1 consisting of human helical domain grafted on mouse TfR1 ectodomain (SEQ ID NO:77) (human/mouse chimera); test: ELISA, coated His-tagged antigen, mouse IgG dilution series
[12] = target: chimeric TfR1 consisting of human apical domain grafted on mouse TfR1 ectodomain (SEQ ID NO:76) (human/mouse chimera); test: as above
[13] = target: mouse TfR1 (mTfR1), recombinant, construct not stated (mouse) (UniProt Q62351); test: BLI, IgG captured from hybridoma supernatant, TfR1 in solution
[14] = target: mouse TfR1 (mTfR1), recombinant, construct not stated (mouse) (UniProt Q62351); test: BLI (Octet): IgG captured from crude hybridoma supernatant on anti-mouse capture sensors, 500 nM mTfR1 in solution
[15] = target: mouse TfR1 (mTfR1), recombinant, construct not stated (mouse) (UniProt Q62351); test: BLI, IgG captured from hybridoma supernatant, 500 nM mTfR1 in solution

Binder	binding [1]	binding [2]	binding [3]	binding [4]	binding [5]	binding [6]	binding [7]	binding [8]	binding [9]	binding [10]	binding [11]	binding [12]	binding [13]	binding [14]	binding [15]
B1	binds	binds	binds	binds	binds	no binding	binds	binds	binds	no binding	no binding	no binding			
B2	binds	binds		binds	binds	no binding	binds	binds	binds	no binding	no binding	no binding	binds	binds	binds
